PubChem BioAssay AID652272, Drosophila RNAi Screening Center | 2013

- Screen: 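Genome-wide knock-down search for components of Hedgehog signalling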 (primary screen)
- System: Drosophila clone 8 (Cl8) cells
- Knock-down reagent: long dsRNA against Drosophila genes
- Read-out: 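Plate reader light from a firefly reporter under a ptc promoter fragment that responds to Hedgehog, with Renilla light as transfection reference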
- Reading the numbers: firefly Hh reporter signal: higher = more ptc reporter light; Renilla reference signal: higher = more Renilla control light
- Active means: 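Called a hit if the two-replicate mean z-score lies below -2 or above +3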
- Meaning of the calls: active = hit: reporter lowered or raised; inactive = not a hit
The deposit covers about 21,000 reagents; below is an unselected part of those that have a named target and a result. In the full data, 503 (2.4%) were called active. 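Raw plate light values, not normalised; calls rest on replicate z-scores that were not deposited; hits include reporter decreases as well as increases.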 Names joined by + are all predicted targets of the reagent. No sequences are given here. Not given: the amount of reagent, the time to read-out.

gene	DRSC id	firefly Hh reporter signal, replicate 1	firefly Hh reporter signal, replicate 2	firefly Hh reporter signal, replicate 3	Renilla reference signal, replicate 1	Renilla reference signal, replicate 2	activity call
Ets65A (Ets at 65A)	DRSC09968	46194	31595		4699	2237	inactive
Ets65A (Ets at 65A)	DRSC10738	51904	64535		2680	2493	inactive
Ets65A (Ets at 65A)	DRSC11164	83586	55030		2757	2451	inactive
mthl3 (methuselah-like 3)	DRSC06997	1.00e5	76433		4989	3508	inactive
CG12898	DRSC06213	71395	47596		1205	4649	inactive
mRpL50 (mitochondrial ribosomal protein L50)	DRSC11015	1.75e5	1.03e5		7844	4169	inactive
Afg3l2 (AFG3 like matrix AAA peptidase subunit 2)	DRSC10657	83277	71744		3095	2698	inactive
Fili (Fish-lips)	DRSC03907	1.17e5	1.81e5		2876	8763	inactive
Fili (Fish-lips)	DRSC04132	85107	54914		2224	4999	inactive
Fili (Fish-lips)	DRSC04445	72976	38996		2609	4208	inactive
Atac3 (Ada2a-containing complex component 3)	DRSC08579	90711	34761		3409	2631	inactive
CG32299 + CG32298	DRSC07980	91819	1.47e5		3280	5994	inactive
CG14419	DRSC17916	1.14e5	3.16e5		4796	11181	inactive
d4	DRSC04881	1.68e5	1.44e5		6246	5858	inactive
CG11634	DRSC03700	93736	42972		2631	4373	inactive
PrBP (Prenyl-binding protein)	DRSC03189	81781	39368		2410	4840	inactive
CG11409	DRSC18579	74682	92624		919	2944	inactive
CG8272	DRSC07134	90722	73668		3530	3014	inactive
CG17385	DRSC06664	89260	52793		2252	3495	inactive
Acp1 (Adult cuticle protein 1)	DRSC01854	79754	65063		1594	5609	inactive
Slob (Slowpoke binding protein)	DRSC02296	1.56e5	54373		3536	5036	inactive
Slob (Slowpoke binding protein)	DRSC03436	94003	1.09e5		4001	4778	inactive
CG8191	DRSC20091	75161	1.74e5		2374	7890	inactive
CG17574	DRSC06681	1.22e5	8.65e5	72699	2586	48432	inactive
CG8248	DRSC07124	75562	41989		3013	1853	inactive
AGO1 (Argonaute-1)	DRSC05912	75655	52112		2794	1764	inactive
spen (split ends)	DRSC00839	1.15e5	67856		4778	3511	inactive
CG6893	DRSC10742	1.01e5			4154	2983	inactive
nclb (no child left behind)	DRSC07009	65270	38553		1632	3303	inactive
sel (seele)	DRSC06232	84169	4.73e5	94819	3442	26902	inactive
CG14070	DRSC02373	1.14e5	74384		3216	6381	inactive
CG10734	DRSC05998	83248	37298		2330	3140	inactive
CG14431	DRSC17925	84971	2.74e5		3336	10988	inactive
CG14431	DRSC17926	42774	1.19e5		1280	5079	inactive
alpha4GT2 (alpha1,4-galactosyltransferase 2)	DRSC13732	44784	1.52e5		9812	2497	inactive
alpha4GT2 (alpha1,4-galactosyltransferase 2)	DRSC15905	5.01e5	1.29e5		26034	3416	inactive
CG7824	DRSC16321	83136	1.31e5		2313	6113	inactive
CG15571	DRSC18059	64375	1.34e5		1904	4937	inactive
Ndc1 (Nuclear division cycle 1)	DRSC15895	1.11e5	61421		4525	2256	inactive
CG6729	DRSC02984	1.75e5	7.90e5	1.48e5	6509	39960	inactive
MICU3 (Mitochondrial calcium uptake 3)	DRSC13381	50001	2.49e5		10468	6342	inactive
MICU3 (Mitochondrial calcium uptake 3)	DRSC15613	1.05e5	97015		4928	3954	inactive
CG5608	DRSC15841	1.68e5	1.43e5		7357	5357	inactive
Menl-2 + Menl-1	DRSC07469	1.25e5	76997		3692	6162	inactive
Menl-2 + Menl-1	DRSC07470	96401	55268		3003	4088	inactive
CG14330	DRSC14809	80632	99277		1992	2490	inactive
iPLA2-VIA (calcium-independent phospholipase A2 VIA)	DRSC10699	1.34e5	47350		5155	1409	inactive
CG5355	DRSC02844	61162	62619		3450	2727	inactive
E(var)3-9 (Enhancer of variegation 3-9)	DRSC14451	1.11e5	1.59e5		4713	4902	inactive
CG15382	DRSC00397	78121	80310		2176	1597	inactive
Deaf1 (Deformed epidermal autoregulatory factor-1)	DRSC11143	1.49e5	5.14e5	1.80e5	5394	3591	inactive
CG11498	DRSC14315	1.08e5	66998		4315	661	inactive
NetA (Netrin-A)	DRSC20261	72515	2.02e5		2376	7360	inactive
brv2 (brivido-2)	DRSC10226	1.34e5			1715	3409	inactive
Swip-1 (Swiprosin-1)	DRSC02083	1.45e5	1.42e5		5366	5424	inactive
Swip-1 (Swiprosin-1)	DRSC02084	1.23e5	44658		3169	4641	inactive
CG31546	DRSC12317	1.24e5	82984		4476	3106	inactive
hts (hu li tai shao)	DRSC05791	1.23e5	2.62e5		3781	11163	inactive
CG4286	DRSC04459	75860	58744		1552	4085	inactive
Pros28.2 (retired record)	DRSC16800	5.10e5	94434		32477	7194	inactive
CG17036	DRSC02564	1.36e5	63708		3625	5831	inactive
CG10031	DRSC00286	1.80e5	58288		4689	6458	inactive
Fst (Frost)	DRSC16491	1.40e5	95709		6416	4168	inactive
CG13216	DRSC06338	89560	39808		2161	3025	inactive
CG13566	DRSC04203	64403	40000		1804	3152	inactive
cdm (cadmus)	DRSC16213	1.16e5	1.10e5		5501	4258	inactive
Ggamma30A (G protein gamma subunit 30A)	DRSC02715	78608	48192		2472	4387	inactive
Ggamma30A (G protein gamma subunit 30A)	DRSC03331	83796	44931		2933	4699	inactive
Npc2e (Niemann-Pick type C-2e)	DRSC15522	1.29e5	1.99e5		3894	5833	inactive
haf (hattifattener)	DRSC00381	92076	67021		2316	1840	inactive
ytr (yantar)	DRSC04306	1.10e5	1.47e5		4896	4949	inactive
CG3698	DRSC11749	1.20e5	87776		4988	3178	inactive
CG5500	DRSC15820	96739	1.06e5		3730	2649	inactive

Limited to “Renilla reference signal, replicate 2”, for 3 of the entries above:
CG17385 [DRSC06664]: 3495
Acp1 (Adult cuticle protein 1) [DRSC01854]: 5609
Slob (Slowpoke binding protein) [DRSC02296]: 5036
